Assay results as given in PubChem BioAssay AID588590 (National Center for Advancing Translational Sciences (NCATS), 2011).
Out of some 390,000 compounds screened, about 4,000 (1%) were called active. The shares of active, inactive and inconclusive entries below differ from those in the screen. Calls follow the shape of the dose curve; as a rule, active = well fitted inhibition curve with a large enough effect; inconclusive = small, poorly fitted or top-dose-only effect, or another doubt; inactive = no such curve, though single readings can be large or run the other way. Potencies beside an inconclusive call are fits to weak or partial responses and may not hold up.

The chains behind the UniProt entries cited, without tags or fusion partners. Where a name states a change or a piece, a line headed by the entry shows the natural chain unless it says otherwise.
UniProt Q9UNA4: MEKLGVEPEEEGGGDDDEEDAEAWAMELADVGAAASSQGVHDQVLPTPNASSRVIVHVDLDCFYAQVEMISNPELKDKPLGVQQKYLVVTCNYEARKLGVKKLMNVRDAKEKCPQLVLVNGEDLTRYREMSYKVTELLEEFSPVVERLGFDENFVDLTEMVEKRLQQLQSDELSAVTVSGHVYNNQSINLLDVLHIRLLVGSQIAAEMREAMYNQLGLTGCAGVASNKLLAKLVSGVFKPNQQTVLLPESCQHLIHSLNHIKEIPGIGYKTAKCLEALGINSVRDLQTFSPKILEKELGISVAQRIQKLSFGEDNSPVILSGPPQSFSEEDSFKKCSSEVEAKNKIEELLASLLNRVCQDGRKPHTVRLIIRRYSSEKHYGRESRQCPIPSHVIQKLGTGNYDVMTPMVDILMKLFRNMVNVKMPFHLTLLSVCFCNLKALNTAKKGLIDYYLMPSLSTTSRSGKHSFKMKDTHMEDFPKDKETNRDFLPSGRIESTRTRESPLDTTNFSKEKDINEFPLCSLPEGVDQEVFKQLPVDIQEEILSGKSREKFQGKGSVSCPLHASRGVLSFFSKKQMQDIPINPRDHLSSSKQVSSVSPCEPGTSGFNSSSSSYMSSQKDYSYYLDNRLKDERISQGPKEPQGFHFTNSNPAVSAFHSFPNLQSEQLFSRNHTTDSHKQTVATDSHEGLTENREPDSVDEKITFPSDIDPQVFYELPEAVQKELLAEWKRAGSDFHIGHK

Biological target: DNA polymerase iota (Homo sapiens) (UniProt Q9UNA4)
Assay: qHTS for Inhibitors of Polymerase Iota
Conditions: Pol iota fluorescent replication assay, 10 min; series mostly up to 115 µM; activity, negative = inhibition: at the top concentration
In short: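 Fluorescent replication assay read twice, at 0 min and 10 min after adding 50 nM (final) substrate. Enzyme (10 nM) and compounds were first incubated 15 min at room temperature; enzyme-free buffer wells were negative controls.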
Potency is read from the fitted curve at half-maximal effect.

SMILES | Potency | activity, negative = inhibition
Cc1ccc(/C=c2/sc3nnc(-c4ccccc4Cl)n3c2=O)o1 | inconclusive: 14.1 µM [inhibitor, full curve, poor fit] | 
CN(C)c1ccc(C(=S)N2CCCCCC2)cc1 | inconclusive: 39.8 µM [inhibitor, single point] | 
O=C(NCCSCc1ccco1)Nc1cc(Cl)cc(Cl)c1 | inconclusive: 44.7 µM [inhibitor, partial curve] | 
O=[N+]([O-])c1cc(CN2CCOCC2)c2cccnc2c1O | inconclusive: 10 µM [inhibitor, full curve, poor fit] | 
O=C(Nc1ccc(S(=O)(=O)N2CCCCCC2)cc1)C1CCCO1 (centres undefined) | inconclusive: 6.31 µM [inhibitor, partial curve, poor fit] | 
O=C(c1ccco1)N(Cc1cccs1)c1ccc(O)cc1 | inconclusive: 39.8 µM [inhibitor, single point] | 
CSCC[C@H](N)C(=O)NC[C@H]1CC[C@H](C(=O)N[C@@H](Cc2ccccc2)C(=O)O)CC1 | inconclusive: 70.8 µM [inhibitor, partial curve, poor fit] | 
O=C(N/N=C/c1cccs1)C(O)c1ccccc1 (centres undefined) | inconclusive: 3.55 µM [inhibitor, partial curve, poor fit] | 
Cc1ccc(C)c(S(=O)(=O)NCC(c2ccc(N(C)C)cc2)N2CCOCC2)c1 (centres undefined) | inconclusive: 89.1 µM [inhibitor, single point] | 
CNCc1ccccc1Sc1cccc(O)c1 |  | inactive: 113%
COc1ccc(-c2nc3ccccn3c2NC2CCCCC2)cc1SC1CCCCC1 | inconclusive: 25.1 µM [inhibitor, single point] | 
CC(=O)Nc1ccc(/C=C/c2nc(-c3ccccc3O)n[nH]2)cc1 |  | inactive: 32.7%
CC1CC2=C(NC(=S)NC2c2cccc(F)c2)/C(=C/c2cccc(F)c2)C1 (centres undefined) |  | inactive: 100%
COc1ccc(Nc2nc(N3CCCCC3)nc3ccccc23)c(OC)c1 | inconclusive: 39.8 µM [inhibitor, partial curve, poor fit] | 
Cc1cc(/C=C2\C(=N)N3N=C(CC(=O)N4CCOCC4)SC3=NC2=O)c(C)n1Cc1ccccc1 | inconclusive: 89.1 µM [inhibitor, single point] | 
Cc1c(NC(=S)N/N=C/c2ccc([N+](=O)[O-])cc2O)c(=O)n(-c2ccccc2)n1C | inconclusive: 50.1 µM [inhibitor, partial curve, poor fit] | 
CC(C)c1ccc(NS(=O)(=O)c2ccc3[nH]cc(C(=O)NC4CCCCC4)c(=O)c3c2)cc1 | inconclusive: 63.1 µM [inhibitor, partial curve, poor fit] | 
Cc1cccc(OCCn2nnc3sc4c(c3c2=O)CCCC4)c1 | inconclusive: 89.1 µM [inhibitor, single point] | 
CCOC(=O)c1sc(NC(=O)CSc2nncn2C)nc1C | inconclusive: 89.1 µM [inhibitor, single point] | 
N#Cc1ccsc1NC(=O)COC(=O)c1ccc(Br)o1 | active: 25.1 µM | 
Cc1cc2c(s1)c1cnn(CC(=O)N3CCOCC3)c(=O)c1n2C |  | inactive: 15.4%
CCc1ccc(-c2csc(NC(=O)C3CC(=O)N(c4ccc5c(c4)OCCO5)C3)n2)cc1 (centres undefined) | active: 89.1 µM | 

SMILES | Potency | activity, negative = inhibition
NNC(=O)c1ccc(O)cc1O | inconclusive: 31.6 µM [inhibitor, partial curve, poor fit] | 
O=C(COc1ccccc1)Nn1cnc2ccccc21 | inconclusive: 31.6 µM [inhibitor, full curve, poor fit] | 
COC(=O)CC1C(=O)NCCN1C(=O)c1ccc2oc(C(C)C)nc2c1 (centres undefined) | inconclusive: 89.1 µM [inhibitor, single point] | 
Cn1cccc1C(=O)NC(=O)CSc1nc2ccccc2s1 | inconclusive: 15.8 µM [inhibitor, partial curve, poor fit] | 
COc1ccc2c(c1OC)C(=O)OC2Nc1nc(-c2ccc([N+](=O)[O-])cc2)cs1 (centres undefined) | inconclusive: 31.6 µM [inhibitor, partial curve, poor fit] | 
Cc1cc(C)nc(NCC(O)CNc2ccccc2Cl)n1 (centres undefined) | inconclusive: 8.91 µM [inhibitor, partial curve, poor fit] | 
CC(C)c1ccc(NC(=O)CSC2=Nc3ccccc3C3=NC(CCC(=O)NCc4cccs4)C(=O)N23)cc1 (centres undefined) |  | inactive: -13.6%
O=C(NCCc1ccc(C(F)(F)F)cc1)C1CC(=O)N(c2ccc3c(c2)OCCO3)C1 (centres undefined) | inconclusive: 50.1 µM [inhibitor, partial curve] | 
CC(C)C[C@H](NC(=O)c1[nH]cnc1C(=O)N[C@@H](Cc1ccccc1)C(=O)OCc1ccccc1)C(=O)OC(C)(C)C | inconclusive: 39.8 µM [inhibitor, single point] | 
Cc1cc(-c2n[nH]c(=S)n2/N=C/c2ccc(Br)s2)n[nH]1 | inconclusive: 89.1 µM [inhibitor, single point] | 
O=S(=O)(N/N=C/c1cn(Cc2ccccc2)c2ccccc12)c1ccccc1 | inconclusive: 50.1 µM [inhibitor, partial curve, poor fit] | 
NC(=O)c1c(NC(=O)COC(=O)c2ccc(O)c(Cl)c2)sc2c1CCCC2 | inconclusive: 22.4 µM [inhibitor, partial curve, poor fit] | 
CC1CCc2nc(NC(=O)c3cc(C(C)(C)C)nn3C)sc2C1 (centres undefined) | inconclusive: 2.51 µM [inhibitor, full curve, poor fit] | 
O=C(c1cnn2c1NC(c1ccc(Br)cc1)CC2C(F)(F)F)N1CCN2CCCC2C1 (centres undefined) | inconclusive: 89.1 µM [inhibitor, single point] | 
Cc1ccccc1NC(=O)Cn1nc(-c2ccc(Cl)s2)ccc1=O | inconclusive: 35.5 µM [inhibitor, partial curve, poor fit] | 
CCCC(=O)Nc1ccc(-c2csc(NNC(C)=O)n2)cc1 | inconclusive: 17.8 µM [inhibitor, partial curve, poor fit] | 
O=S(=O)(NCCC1=CCCCC1)c1cccc(Br)c1 | inconclusive: 56.2 µM [inhibitor, partial curve, poor fit] | 
Cc1ccc(NC(=O)N2CCC(NC(=O)c3cccc(C)c3)CC2)cc1 | inconclusive: 22.4 µM [inhibitor, full curve, poor fit] | 
Cc1cccc(CN2Cc3cccc4c3[C@H](C=CC4)CC2=S)c1 |  | inactive: 31.4%
CC(C)(C)c1ccc(-c2nnc(NC(=O)c3ccccc3)s2)cc1 | inconclusive: 50.1 µM [inhibitor, partial curve, poor fit] | 
Cn1c(=O)n(C)c2cc(CNCc3ccccc3Cl)ccc21 |  | inactive: 29.5%
O=c1nc(/C=C/c2ccc(O)c(O)c2)oc2ccccc12 | inconclusive: 22.4 µM [inhibitor, full curve] | 

SMILES | Potency | activity, negative = inhibition
COc1ccc(NS(=O)(=O)c2cccc(C(=O)NN=Cc3ccc(O)c(OC)c3)c2)cc1 | inconclusive: 35.5 µM [inhibitor, single point] | 
O=C(/C=C/c1ccc2c(c1)OCCO2)c1ccccc1 | inconclusive: 25.1 µM [inhibitor, full curve, poor fit] | 
CCc1ccc(Oc2coc3cc(OC(=O)c4cc5ccccc5oc4=O)ccc3c2=O)cc1 | inconclusive: 89.1 µM [inhibitor, single point] | 
COc1cccc(-n2c(C)nc3c(cnn3-c3ccc(C)c(C)c3)c2=O)c1 |  | inactive: -2.27%
COc1cccc(-c2cc(=O)[nH][nH]2)c1 | inconclusive: 14.1 µM [inhibitor, partial curve] | 
COc1ccccc1C(=O)Nc1ccc2oc(-c3ccc(F)cc3)nc2c1 | inconclusive: 12.6 µM [inhibitor, partial curve, poor fit] | 
CCOC(=O)c1cc2c(=O)n3ccccc3nc2n(CCCOC)c1=NC(=O)c1cc2ccccc2o1 |  | inactive: 32.4%
O=C(NCc1ccccn1)c1nc(-c2ccc(C(F)(F)F)cc2)no1 | inconclusive: 89.1 µM [inhibitor, single point] | 
COC(=O)c1ccc(CSc2nc3ccccc3c(=O)n2C)o1 | inconclusive: 35.5 µM [inhibitor, single point] | 
O=C(Nc1nc(-c2ccccn2)cs1)c1cccc(-n2cnnn2)c1 | inconclusive: 12.6 µM [inhibitor, full curve] | 
Cn1c(=O)cc(OCCCC(=O)NCc2ccco2)c2ccccc21 | inconclusive: 56.2 µM [inhibitor, partial curve, poor fit] | 
CCSc1n[nH]c(=S)s1 |  | inactive: 49.9%
CCC(CC)C(=O)Nc1cccc(C(=O)Nc2ccc(OC)cc2[N+](=O)[O-])c1 | inconclusive: 89.1 µM [inhibitor, single point] | 
CCC(C)Sc1cccc(-c2nc3ccc(C)cn3c2NCc2ccccc2)c1 (centres undefined) | inconclusive: 15.8 µM [inhibitor, full curve, poor fit] | 
CC(C)Oc1ccc(CNC(=O)Oc2ccccc2)cc1 |  | inactive: -13%
c1ccc(CCn2nnnc2CN2CCc3ccccc32)cc1 | inconclusive: 39.8 µM [inhibitor, single point] | 
C=C1C(=O)OC2C1CCC(C)C1C=CC(=O)C12C (centres undefined) | active: 44.7 µM | 
COc1cccc(/C=N/NC(=O)c2c(C)nc3ccc(Cl)cn23)c1OC | inconclusive: 79.4 µM [inhibitor, partial curve] | 
COc1ccc(-c2cc3nc4c(c(=O)n3[nH]2)CCC4)cc1 | inconclusive: 89.1 µM [inhibitor, partial curve, poor fit] | 
O=c1[nH]c(/C=C/c2ccc([N+](=O)[O-])cc2)c([N+](=O)[O-])c(=O)[nH]1 | inconclusive: 35.5 µM [inhibitor, partial curve, poor fit] | 

3 compounds drawn at random from those above, as already listed:
SMILES | Potency | activity, negative = inhibition
CC(C)Oc1ccc(CNC(=O)Oc2ccccc2)cc1 |  | inactive: -13%
COC(=O)c1ccc(CSc2nc3ccccc3c(=O)n2C)o1 | inconclusive: 35.5 µM [inhibitor, single point] | 
COc1cccc(-n2c(C)nc3c(cnn3-c3ccc(C)c(C)c3)c2=O)c1 |  | inactive: -2.27%
